Measurements as given in US6506889 (UNIVERSITY TECHNOLOGY, dated 2003).
These are yes or no findings as the source states them, for the method shown. For some of these results: Binding calls can cover weak binding; strength is not graded here. Where a sequence is shown, tags or fusion partners need not be part of it. Each block holds one binder with its values, some of them ahead of it.

Tests used:
[1] = molecular target: LET-60 Ras with deletion of the membrane targeting region, yeast two-hybrid fusion; assay: yeast two-hybrid
[2] = molecular target: KSR-1 (yeast two-hybrid fusion) (C. elegans); assay: yeast two-hybrid, His and LacZ reporters
[3] = molecular target: KSR-1 (yeast two-hybrid fusion) (C. elegans); assay: yeast two-hybrid

binding [1]: binds
B1: wild type LIN-45 Raf (yeast two-hybrid fusion) (enzyme, C. elegans, UniProt Q07292 1-813, looked up, not shown: large carriers)
chain: MSRINFKKSSASTTPTSPHCPSPRLISLPRCASSSIDRKDQASPMASPSTPLYPKHSDSLHSLSGHHSAGGAGTSDKEPPKFKYKMIMVHLPFDQHSRVEVRPGETARDAISKLLKKRNITPQLCHVNASSDPKQESIELSLTMEEIASRLPGNELWVHSEYLNTVSSIKHAIVRRTFIPPKSCDVCNNPIWMMGFRCEFCQFKFHQRCSSFAPLYCDLLQSVPKNEDLVKELFGIASQVEGPDRSVAEIVLANLAPTSGQSPAATPDSSHPDLTSIKRTGGVKRHPMAVSPQNETSQLSPSGPYPRDRSSSAPNINAINDEATVQHNQRILDALEAQRLEEESRDKTGSLLSTQARHRPHFQSGHILSGARMNRLHPLVDCTPLGSNSPSSTCSSPPGGLIGQPTLGQSPNVSGSTTSSLVAAHLHTLPLTPPQSAPPQKISPGFFRNRSRSPGERLDAQRPRPPQKPHHEDWEILPNEFIIQYKVGSGSFGTVYRGEFFGTVAIKKLNVVDPTPSQMAAFKNEVAVLKKTRHLNVLLFMGWVREPEIAIITQWCEGSSLYRHIHVQEPRVEFEMGAIIDILKQVSLGMNYLHSKNIIHRDLKTNNIFLMDDMSTVKIGDFGLATVKTKWTVNGGQQQQQPTGSILWMAPEVIRMQDDNPYTPQSDVYSFGICMYEILSSHLPYSNINNRDQILFMVGRGYLRPDRSKIRHDTPKSMLKLYDNCIMFDRNERPVFGEVLERLRDIILPKLTRSQSAPNVLHLDSQYSVMDAVMRSQMLSWSYIPPATAKTPQSAAAAAAANKKAYYNVYGLI

binding [2]: no binding
binding [1]: binds
binding [3]: no binding
B2: C. elegans SUR-8 fused to the GAL4 activation domain (other, not shown: large carriers)
chain: METSKEFEFRPAKETSRSKSPGGIVGRLSNFARNKARHSLSEKGSNSVGGSGGAGFDKPRKDLLKEFHKCKEAQDQRLDLSSIEITSIPSPIKELTQLTELFLYKNKLTCLPTEIGQLVNLKKLGLSENALTSLPDSLASLESLETLDLRHNKLTEVPSVIYKIGSLETLWLRYNRIVAVDEQIGNLSKLKMLDVRENKIRELPSAIGKLTSLVVCLVSYNHLTRVPEEIGDCHSLTQLDLQHNDLSELPYSIGKLVNLVRIGIRYNKIRCIPSELESCQQLEEFIVESNHLQLLPPNLLTMLPKIHTVNLSRNELTAFPAGGPQQFVSTVTINMEHNQISKIPIGIFSKATRLTKLNLKENELVSLPLDMGSWTSITELNLSTNQLKVLPEDIEKLVNLEILVLSNNQLKKLPNQIGNLNKLRELDLEENELETVPTEIGFLQHLTKLWVQSNKILTLPRSIGNLCSLQDLRLGENNLTAIPEEIGHLDSLKSLYLNDNSSLHNLPFELALCQSLEIMSIENSPLSQIPPEITAGGPSLVIQYLKMQGPYRGVVMNSQ
notes: Yeast two-hybrid construct: 1.7 kb sur-8 cDNA cloned in-frame into pACT2; also called Ce SUR-8; wild-type SUR-8
